PubChem BioAssay AID1671195 – Yale University, 2021

Purpose: 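Knockdowns that increase or decrease uptake of fluorescent LDL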 (primary screen)
Cells: human Huh7 hepatoma cells
Knock-down reagent: siRNA pool against human genes, 18 nM
Timing: about 2 to 2.5 days of knockdown, then 8 h LDL uptake
Challenge: DiI-labelled LDL at 30 µg/ml for 8 h, in lipoprotein-deficient serum medium
Read-out: 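Fluorescent LDL signal imaged in cells, scaled to the plate median, robust z-score for each replicate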
Direction: robust z-score: higher = more LDL uptake after knockdown
Rule for the call: 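Active when two or more replicates show a robust z-score above 2 or below -2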
The deposit covers about 22,000 reagents; shown is a part drawn at random. About 1,510 of them (6.9%) count as active. 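Active includes knockdowns raising or lowering LDL uptake; positive z-scores mean more uptake, negative mean less.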 Entries without a mark were called inactive.

With knock-down of ATM, the record shows robust z-score, replicate 1 = -0.448; robust z-score, replicate 2 = -0.875; robust z-score, replicate 3 = -0.715.
With knock-down of NDUFV1-DT, the record shows robust z-score, replicate 1 = -0.97; robust z-score, replicate 2 = -0.653; robust z-score, replicate 3 = -0.545.
For TP53AIP1 the deposit lists robust z-score, replicate 1 = 0.785; robust z-score, replicate 2 = 1.51; robust z-score, replicate 3 = 0.944.
OR4L1 scored robust z-score, replicate 1 = 0.689; robust z-score, replicate 2 = 1.24; robust z-score, replicate 3 = 0.652.

Part of the list above, set out differently:
| Target gene | robust z-score, replicate 1 | robust z-score, replicate 2 | robust z-score, replicate 3 |
| --- | --- | --- | --- |
| NDUFV1-DT | -0.97 | -0.653 | -0.545 |
| TP53AIP1 | 0.785 | 1.51 | 0.944 |

Further entries:
With knock-down of LINC02649 the results were robust z-score, replicate 1 = 0.101; robust z-score, replicate 2 = -0.0251; robust z-score, replicate 3 = -0.895.
OR4K2 gave robust z-score, replicate 1 = -0.875; robust z-score, replicate 2 = -0.937; robust z-score, replicate 3 = -1.1.
Silencing of LOC390192 (retired record) came out at: robust z-score, replicate 1 = 1.16; robust z-score, replicate 2 = 0.24; robust z-score, replicate 3 = 0.191.
Against ELFN2, the values are robust z-score, replicate 1 = -0.0771; robust z-score, replicate 2 = -1.34; robust z-score, replicate 3 = -0.684.
Silencing of CEPT1 resulted in: robust z-score, replicate 1 = 0.905; robust z-score, replicate 2 = 0.655; robust z-score, replicate 3 = 1.32.
LIN52 gave robust z-score, replicate 1 = -0.717; robust z-score, replicate 2 = -1.21; robust z-score, replicate 3 = -1.17.
Depletion of CEP57L1 came out at: robust z-score, replicate 1 = -1.05; robust z-score, replicate 2 = -1.02; robust z-score, replicate 3 = -0.882.
SLC25A3 showed robust z-score, replicate 1 = -1.83; robust z-score, replicate 2 = -1.47; robust z-score, replicate 3 = -1.03.
